Laboratory results published in article PMC11705415.
Results are given in words; binding and its absence hold for the method and conditions named. In cells and extracts the contact can be indirect. Some entries that bind do so weakly or less than the wild type. For some of these results: Where a sequence is shown, tags or fusion partners need not be part of it.

Amino acid sequences for entries named in this document (tags omitted). A change or cut given only in a name is not applied to a line headed by its entry. Chains listed by the source or under a name are the forms on record and can include a tag or linker.
UniProt P33215: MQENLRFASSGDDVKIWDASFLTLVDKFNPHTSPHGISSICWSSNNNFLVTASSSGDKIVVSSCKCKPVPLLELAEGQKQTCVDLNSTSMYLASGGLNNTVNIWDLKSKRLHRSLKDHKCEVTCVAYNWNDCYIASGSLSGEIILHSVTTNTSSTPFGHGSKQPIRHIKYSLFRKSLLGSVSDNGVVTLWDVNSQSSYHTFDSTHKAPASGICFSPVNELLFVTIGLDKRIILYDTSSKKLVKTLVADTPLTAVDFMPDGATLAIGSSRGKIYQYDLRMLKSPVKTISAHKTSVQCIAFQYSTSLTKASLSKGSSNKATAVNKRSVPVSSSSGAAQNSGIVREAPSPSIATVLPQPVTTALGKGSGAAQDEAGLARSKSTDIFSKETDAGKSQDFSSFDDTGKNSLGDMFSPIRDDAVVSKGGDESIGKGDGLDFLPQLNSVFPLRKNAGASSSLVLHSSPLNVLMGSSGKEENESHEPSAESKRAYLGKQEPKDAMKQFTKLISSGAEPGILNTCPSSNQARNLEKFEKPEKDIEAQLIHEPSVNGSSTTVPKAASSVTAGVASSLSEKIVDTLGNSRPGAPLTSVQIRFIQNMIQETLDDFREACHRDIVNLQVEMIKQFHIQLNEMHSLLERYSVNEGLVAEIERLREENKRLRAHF
UniProt P28740: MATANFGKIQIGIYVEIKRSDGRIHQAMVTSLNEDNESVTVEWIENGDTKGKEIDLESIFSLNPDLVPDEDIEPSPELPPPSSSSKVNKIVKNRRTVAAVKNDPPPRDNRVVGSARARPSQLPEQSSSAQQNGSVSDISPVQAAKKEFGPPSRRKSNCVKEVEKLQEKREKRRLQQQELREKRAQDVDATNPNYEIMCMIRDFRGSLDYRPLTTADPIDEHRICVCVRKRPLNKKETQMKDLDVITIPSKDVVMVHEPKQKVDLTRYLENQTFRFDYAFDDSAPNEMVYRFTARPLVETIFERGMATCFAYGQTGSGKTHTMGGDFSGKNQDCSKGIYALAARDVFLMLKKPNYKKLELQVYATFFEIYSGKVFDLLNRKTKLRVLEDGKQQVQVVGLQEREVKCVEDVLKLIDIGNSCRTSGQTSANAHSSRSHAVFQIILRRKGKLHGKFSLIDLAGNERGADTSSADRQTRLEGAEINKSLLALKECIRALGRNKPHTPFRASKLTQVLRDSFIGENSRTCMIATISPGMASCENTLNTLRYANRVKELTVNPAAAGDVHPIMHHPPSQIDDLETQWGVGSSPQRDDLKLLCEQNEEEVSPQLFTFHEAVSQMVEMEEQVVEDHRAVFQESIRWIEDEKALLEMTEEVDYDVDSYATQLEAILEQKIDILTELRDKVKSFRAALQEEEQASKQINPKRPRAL
UniProt P62069: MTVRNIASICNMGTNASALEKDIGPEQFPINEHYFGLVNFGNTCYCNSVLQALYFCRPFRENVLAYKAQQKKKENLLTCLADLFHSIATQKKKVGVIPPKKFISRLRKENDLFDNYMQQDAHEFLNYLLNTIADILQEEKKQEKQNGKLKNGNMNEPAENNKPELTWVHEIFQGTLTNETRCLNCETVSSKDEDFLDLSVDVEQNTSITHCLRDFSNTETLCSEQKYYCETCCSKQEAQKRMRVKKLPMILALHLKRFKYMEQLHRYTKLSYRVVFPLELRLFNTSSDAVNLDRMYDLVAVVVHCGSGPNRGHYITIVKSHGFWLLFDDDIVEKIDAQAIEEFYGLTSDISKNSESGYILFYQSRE
HA-USP46-ΔK92 (P62069, form named): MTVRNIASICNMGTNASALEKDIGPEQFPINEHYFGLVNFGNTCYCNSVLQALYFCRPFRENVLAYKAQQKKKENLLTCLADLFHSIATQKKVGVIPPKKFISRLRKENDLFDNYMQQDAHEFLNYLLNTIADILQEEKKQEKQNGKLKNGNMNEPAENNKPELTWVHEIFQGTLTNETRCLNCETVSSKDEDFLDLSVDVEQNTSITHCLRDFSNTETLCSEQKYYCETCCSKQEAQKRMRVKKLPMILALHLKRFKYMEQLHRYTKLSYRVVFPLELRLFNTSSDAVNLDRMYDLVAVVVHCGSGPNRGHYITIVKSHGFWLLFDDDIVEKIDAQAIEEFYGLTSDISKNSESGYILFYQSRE

Assays:
Test in all cases: co-IP; Neuro2a cells co-transfected with HA-USP46 and VC-tagged protein; lysis in TNE buffer with 0.1% Triton X-100; precipitation of the VC-tagged protein with anti-GFP antibody and Protein G magnetic beads at 4 °C; HA-USP46 detected by western blotting
[1] = biological target: T1, VC-tagged HAP1 (UniProt O35668)
T1 sequence: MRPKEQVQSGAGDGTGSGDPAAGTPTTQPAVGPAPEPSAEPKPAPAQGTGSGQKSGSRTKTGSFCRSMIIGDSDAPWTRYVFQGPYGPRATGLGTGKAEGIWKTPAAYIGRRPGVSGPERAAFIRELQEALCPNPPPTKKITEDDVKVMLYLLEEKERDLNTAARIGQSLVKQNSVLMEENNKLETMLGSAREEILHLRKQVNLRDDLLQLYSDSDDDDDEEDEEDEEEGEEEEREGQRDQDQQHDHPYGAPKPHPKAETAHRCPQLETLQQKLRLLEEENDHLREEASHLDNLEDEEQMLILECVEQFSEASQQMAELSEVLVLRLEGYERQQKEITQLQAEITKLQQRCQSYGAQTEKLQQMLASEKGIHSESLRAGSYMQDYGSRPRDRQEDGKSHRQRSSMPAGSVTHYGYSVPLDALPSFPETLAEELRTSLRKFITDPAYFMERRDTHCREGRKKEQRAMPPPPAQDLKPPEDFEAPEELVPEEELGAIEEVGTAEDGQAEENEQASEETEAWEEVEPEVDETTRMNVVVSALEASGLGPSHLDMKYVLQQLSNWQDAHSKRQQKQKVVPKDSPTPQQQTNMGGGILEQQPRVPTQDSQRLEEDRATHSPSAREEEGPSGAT

[2] = biological target: T2, VC-tagged CCP110 (UniProt Q7TSH4)
T2 sequence: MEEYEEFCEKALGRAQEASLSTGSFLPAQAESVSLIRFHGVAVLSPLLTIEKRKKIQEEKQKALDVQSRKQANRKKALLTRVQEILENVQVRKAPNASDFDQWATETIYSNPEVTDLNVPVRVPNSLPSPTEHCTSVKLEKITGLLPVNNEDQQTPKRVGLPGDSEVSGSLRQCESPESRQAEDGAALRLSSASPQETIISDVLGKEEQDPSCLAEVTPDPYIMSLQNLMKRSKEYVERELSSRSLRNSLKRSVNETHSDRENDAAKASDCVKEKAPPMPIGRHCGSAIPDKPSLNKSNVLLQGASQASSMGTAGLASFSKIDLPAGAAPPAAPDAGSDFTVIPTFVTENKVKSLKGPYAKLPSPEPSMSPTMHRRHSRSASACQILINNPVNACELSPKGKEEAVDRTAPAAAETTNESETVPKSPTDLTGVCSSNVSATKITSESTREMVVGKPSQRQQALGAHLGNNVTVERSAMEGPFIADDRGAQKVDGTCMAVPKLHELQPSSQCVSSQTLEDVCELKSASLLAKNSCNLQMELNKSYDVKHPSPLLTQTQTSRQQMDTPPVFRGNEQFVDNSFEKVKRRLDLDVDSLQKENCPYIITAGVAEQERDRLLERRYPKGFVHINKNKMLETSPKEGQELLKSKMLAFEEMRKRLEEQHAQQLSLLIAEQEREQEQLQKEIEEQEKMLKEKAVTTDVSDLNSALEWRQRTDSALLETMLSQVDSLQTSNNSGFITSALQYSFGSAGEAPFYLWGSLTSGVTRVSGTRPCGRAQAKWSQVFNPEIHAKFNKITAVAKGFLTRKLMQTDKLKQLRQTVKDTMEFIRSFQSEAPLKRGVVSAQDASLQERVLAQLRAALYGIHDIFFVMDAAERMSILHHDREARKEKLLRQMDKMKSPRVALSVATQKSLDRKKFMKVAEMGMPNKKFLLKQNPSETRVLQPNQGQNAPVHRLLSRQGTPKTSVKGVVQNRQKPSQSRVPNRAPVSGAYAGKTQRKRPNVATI

[3] = biological target: VC-tagged NEDD1 (UniProt P33215)
[4] = biological target: VC-tagged KIF2A (UniProt P28740)
[5] = biological target: T3, VC-tagged HOOK3 (UniProt Q8BUK6)
T3 sequence: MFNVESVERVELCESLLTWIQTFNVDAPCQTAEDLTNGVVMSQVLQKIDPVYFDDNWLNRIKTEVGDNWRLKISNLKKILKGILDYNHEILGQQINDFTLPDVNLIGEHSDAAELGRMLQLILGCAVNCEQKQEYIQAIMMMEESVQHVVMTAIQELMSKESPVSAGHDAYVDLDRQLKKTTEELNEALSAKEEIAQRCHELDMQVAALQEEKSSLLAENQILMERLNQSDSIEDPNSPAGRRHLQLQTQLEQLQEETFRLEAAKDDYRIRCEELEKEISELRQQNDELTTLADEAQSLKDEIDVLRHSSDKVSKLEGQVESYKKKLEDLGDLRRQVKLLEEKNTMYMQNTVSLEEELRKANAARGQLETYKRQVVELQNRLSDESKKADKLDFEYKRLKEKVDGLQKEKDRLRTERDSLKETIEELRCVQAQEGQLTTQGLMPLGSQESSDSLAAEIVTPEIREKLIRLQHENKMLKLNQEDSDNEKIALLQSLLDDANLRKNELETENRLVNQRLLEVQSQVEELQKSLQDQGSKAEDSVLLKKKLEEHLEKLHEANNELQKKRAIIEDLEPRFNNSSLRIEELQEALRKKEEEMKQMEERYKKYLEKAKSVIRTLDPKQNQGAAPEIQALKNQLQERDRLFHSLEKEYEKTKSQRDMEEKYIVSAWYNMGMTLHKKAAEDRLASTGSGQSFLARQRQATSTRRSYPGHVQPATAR

Measured: binding

HA-USP46-ΔK92 (from UniProt P62069 1-366) (enzyme)
binds: [1] | [2] | [3] | [4] | [5]

HA-USP46-WT (from UniProt P62069 1-366) (enzyme)
binds: [1] | [2] | [3] | [4] | [5]
